Data as given in PubChem BioAssay AID1259425 (University of Nebraska Medical Center, 2018).
Aim: 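Compare each knockdown with KSR1 silencing using changes in marker transcripts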 (primary screen). Cell system: HCT116 human colon cancer cells. Reagent: siRNA pool against human genes, 50 nM siRNA. Measured: 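After 50 nM siRNA pool, branched-DNA assay measures six marker transcripts per well, minus blank, normalised to the geometric mean of two housekeeping transcripts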. Direction: BNIP3L mRNA: higher = more BNIP3L transcript after knockdown; NDRG1 mRNA: higher = more NDRG1 transcript after knockdown.
Shown is a random part of about 14,000 reagents tested. Not all columns of the deposit are shown. No sequences are given here. Not given: the time to read-out.

For LSM1 (LSM1 homolog, mRNA degradation associated), what does the deposit list?
BNIP3L mRNA, set 1: 0.0735; NDRG1 mRNA, set 1: 0.181

Which result is listed for PNMA2 (PNMA family member 2)?
BNIP3L mRNA, set 1: 0.127; NDRG1 mRNA, set 1: 0.0817

How did the screen score APOC1 (apolipoprotein C1)?
BNIP3L mRNA, set 1: 0.21; NDRG1 mRNA, set 1: 0.0874

With C1orf94 (chromosome 1 open reading frame 94), what was measured?
BNIP3L mRNA, set 1: 0.291; NDRG1 mRNA, set 1: 0.301

With PFKP (phosphofructokinase, platelet), what does the deposit list?
BNIP3L mRNA, set 1: 0.0954; NDRG1 mRNA, set 1: 0.419

Which result is listed for NDUFS8 (NADH:ubiquinone oxidoreductase core subunit S8)?
BNIP3L mRNA, set 1: 0.108; NDRG1 mRNA, set 1: 0.255

As entered above.
LSM1 (LSM1 homolog, mRNA degradation associated), NDRG1 mRNA, set 1 → 0.181
Entry of C1orf94 (chromosome 1 open reading frame 94) under “BNIP3L mRNA, set 1”: 0.291

More reagents follow:
With ACY3 (aminoacylase 3), what does the deposit list?
BNIP3L mRNA, set 1: 0.159; NDRG1 mRNA, set 1: 0.366

With RNASE6 (ribonuclease A family member 6), how do the results read?
BNIP3L mRNA, set 1: 0.0737; NDRG1 mRNA, set 1: 0.251

With ITGA9 (integrin subunit alpha 9), what was measured?
BNIP3L mRNA, set 1: 0.0366; NDRG1 mRNA, set 1: 0.172

What is on record for TMOD3 (tropomodulin 3)?
BNIP3L mRNA, set 1: 0.116; NDRG1 mRNA, set 1: 0.469

How did the screen score SGCA (sarcoglycan alpha)?
BNIP3L mRNA, set 1: 0.142; NDRG1 mRNA, set 1: 0.44

With NUP54 (nucleoporin 54), how do the results read?
BNIP3L mRNA, set 1: 0.0886; NDRG1 mRNA, set 1: 0.18
